Laboratory results reported in PubChem BioAssay AID540256 (National Center for Advancing Translational Sciences (NCATS), 2011).
Screen size: about 300,000 compounds; about 3,700 (1.2%) were called active. The inconclusive results got no clear call from the source; some entries with a clear call stand among them for comparison. Calls follow the shape of the full dose curve; tested in HEK293 cells. Potencies beside an inconclusive call are fits to weak or partial responses and may not hold up.

assay: qHTS for Inhibitors of binding or entry into cells for Lassa Virus; conditions: Lassa virus pseudotype entry inhibition, cell reporter; activity change, negative = inhibition: at 37.9 µM (top of the series) unless noted; also: nearly all actives have a fitted effect of over 50% in size
% is scaled to controls: 0 for no effect and ±100 for the full control effect; potency is read from the fitted curve at half-maximal effect.

Row | Compound | Potency | activity change, negative = inhibition
1 | O=C(CN1c2ccccc2Sc2ccccc21)N/N=C/c1ccccc1 | inconclusive: 28.2 µM [inhibitor, single point] | –
2 | N#CCc1nc(CSc2nc3ccccc3o2)cs1 | – | inactive: 8.05%
3 | Cc1ccc2nc(SCC(=O)Nc3ccc4sc(C)nc4c3)c(C#N)cc2c1 | inconclusive: 32.6 µM [inhibitor, single point] | –
4 | COc1ccc(/C=N/NC(=O)OC(C)(C)C)cc1OC | – | inactive: 0.393%
5 | CCOc1c(Br)cc(C2CC(=O)Nc3cc4c(cc32)OCO4)cc1OC (configuration not stated) | inconclusive: 7.94 µM [inhibitor, partial curve] | –
6 | COc1ccc(NS(=O)(=O)c2ccc(NC(=S)NC(=O)c3ccc(Br)cc3)cc2)nn1 | – | inactive: 17.3%
7 | COc1ccc(C2C=C(c3ccc(Cl)cc3)Nc3nc(-c4ccc(Cl)cc4)nn32)cc1 (configuration not stated) | inconclusive: 17.8 µM [inhibitor, single point] | –
8 | COc1cc2c(cc1OC)C(c1cccs1)N(C(=O)c1cccc(S(=O)(=O)N(C)C)c1)CC2 (configuration not stated) | inconclusive: 12.6 µM [inhibitor, partial curve, poor fit] | –
9 | O=C(/C=C/c1ccc([N+](=O)[O-])cc1)NCc1ccco1 | inconclusive: 11.2 µM [inhibitor, partial curve, poor fit] | –
10 | O=C(CSc1n[nH]c(-c2ccc(F)cc2)n1)NCc1ccccc1Cl | inconclusive: 12.6 µM [inhibitor, partial curve, poor fit] | –
11 | CCC(C(=O)NCCCc1ccccc1)n1nc(C)c2c(C)n(-c3ccccc3)nc2c1=O (configuration not stated) | – | inactive: -5.48% [at 46.1 µM]
12 | CCN1CCOC(CC(=O)Nc2ccc([N+](=O)[O-])cc2)C1=O (configuration not stated) | – | inactive: 15.5%
13 | OC1=C(O)c2nc3cc(C(F)(F)F)ccc3nc21 | – | inactive: 6.88% [at 46.1 µM]
14 | OCC1O[C@H]([S-])[C@H](O)[C@@H](O)[C@@H]1O.[Au+] (some centres not stated) | inconclusive: 0.58 µM [inhibitor, partial curve, poor fit] | –
15 | Cc1ccccc1Nc1n[nH]c(C)c1[N+](=O)[O-] | – | inactive: 4.56%
16 | Cc1ccc(NC(=O)c2oc3ccc4c(c3c2C)C(=O)CC(C)(C)O4)c(C)c1 | inconclusive: 7.94 µM [activator, partial curve, poor fit] | –
17 | CC(Oc1ccc(Br)cc1)C(=O)O/N=C(\N)c1ccncc1 (configuration not stated) | inconclusive: 3.16 µM [activator, single point] | –
18 | O=C(CCN1C(=O)/C(=C\c2cccs2)SC1=S)Nc1ccccn1 | – | inactive: -22.3%
19 | O=C1NC(c2ccccc2Cl)=N/C1=C/c1ccco1 | inconclusive: 3.98 µM [activator, full curve, poor fit] | –
20 | Cc1ccc(NC(=O)c2cccc(F)c2)cc1S(=O)(=O)N1CCCCCC1 | inconclusive: 22.4 µM [inhibitor, single point] | –
21 | COCCOC(=O)C1=C(C)NC(C)=C(C(=O)OCCOC)C1/C=C/c1ccccc1OC | inconclusive: 14.1 µM [inhibitor, single point] | –

3 records drawn at random from the list so far:
Row | Compound | Potency | activity change, negative = inhibition
6 | COc1ccc(NS(=O)(=O)c2ccc(NC(=S)NC(=O)c3ccc(Br)cc3)cc2)nn1 | – | inactive: 17.3%
8 | COc1cc2c(cc1OC)C(c1cccs1)N(C(=O)c1cccc(S(=O)(=O)N(C)C)c1)CC2 (configuration not stated) | inconclusive: 12.6 µM [inhibitor, partial curve, poor fit] | –
19 | O=C1NC(c2ccccc2Cl)=N/C1=C/c1ccco1 | inconclusive: 3.98 µM [activator, full curve, poor fit] | –

(listing goes on)

Row | Compound | Potency | activity change, negative = inhibition
22 | CCOc1ccccc1N1CCN(C(=O)c2cn(CC3CCCCC3)nn2)CC1 | – | inactive: -0.762%
23 | COc1ccc(C(=O)N2N=C(c3cccc(NS(C)(=O)=O)c3)CC2c2cccs2)cc1 (configuration not stated) | inconclusive: 10 µM [inhibitor, partial curve, poor fit] | –
24 | COc1ccc2c(-c3ccccc3)cc(N3CCOCC3)nc2c1 | inconclusive: 31.6 µM [inhibitor, partial curve, poor fit] | –
25 | CCOC(=O)c1cnn(-c2ccc(C(=O)Nc3ccc(C(C)=O)cc3)cc2)c1N | inconclusive: 2.82 µM [activator, single point] | –
26 | COc1cccc(Cl)c1NC(=O)N1CCN(c2cc(C)nc3ccccc23)CC1 | inconclusive: 35.5 µM [inhibitor, single point] | –
27 | CCCS(=O)(=O)Nc1cccc(-c2cn3ccc(C)cc3n2)c1 | inconclusive: 3.16 µM [activator, partial curve, poor fit] | –
28 | CCc1cccc(C)c1NC(=O)CN1C(=O)C2(SCC(=O)N2c2cccc(F)c2)c2ccccc21 (configuration not stated) | inconclusive: 14.1 µM [inhibitor, single point] | –
29 | CC12CCC(C(=O)Nc3nc4ccccc4s3)(OC1=O)C2(C)C (configuration not stated) | – | inactive: 2.79% [at 46.1 µM]
30 | O=C(CCCC(=O)OCC(F)(F)C(F)F)Nc1ccccc1F | inconclusive: 6.31 µM [inhibitor, partial curve, poor fit] | –
31 | CCC(C)c1ccc(NC(=S)NCCn2cc(Cl)cn2)cc1 (configuration not stated) | inconclusive: 1.12 µM [inhibitor, full curve] | –
32 | CCCc1ccc(OCc2ccc(C(=O)O)o2)c(OC)c1 | inconclusive: 10 µM [inhibitor, partial curve, poor fit] | –
33 | CC(=O)Nc1sc2c(c1CN1CCN(c3ccc(F)cc3)CC1)CCCC2 | inconclusive: 12.6 µM [inhibitor, single point] | –
34 | COc1ccc(S(=O)(=O)N2CCOCC2)cc1NC(=O)CCc1c[nH]c2ccccc12 | inconclusive: 10 µM [inhibitor, partial curve, poor fit] | –
35 | CC(NC(=O)/C=C/c1ccccc1)c1ccccc1 (configuration not stated) | inconclusive: 11.2 µM [inhibitor, partial curve, poor fit] | –
36 | O=C(NC1CCCCC1)C(c1ccccc1)N(Cc1ccco1)C(=O)Cn1cnc2ccccc21 (configuration not stated) | – | inactive: -16.9%
37 | N#Cc1cc(C(=O)c2cc(F)ccc2O)cn(Cc2ccccc2)c1=O | inconclusive: 35.5 µM [inhibitor, single point] | –
38 | CN(C)S(=O)(=O)Nc1cc(Cl)cc(Cl)c1 | inconclusive: 3.16 µM [inhibitor, single point] | –
39 | CCOC(=O)c1cc(C(=O)Nc2ccccc2F)nn1C | inconclusive: 16.4 µM [inhibitor, single point] | –
40 | CCCCc1ccc(NC(=O)c2ccc3c(c2)CCN3S(=O)(=O)CC)cc1 | inconclusive: 0.708 µM [inhibitor, single point] | –
41 | Cc1ccc(CN2CCc3c(OCc4ccc(F)cc4)cccc3C2=O)cc1 | active: 7.08 µM | –
42 | CCc1ccc(/C=N/NC(=O)c2cc(-c3ccccc3OC)nc3ccccc23)s1 | inconclusive: 22.4 µM [inhibitor, single point] | –
